Measurements reported in PubChem BioAssay AID1259314 (Drosophila RNAi Screening Center, 2017).

- Test: 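Modifiers of manganese chloride toxicity in fly cells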 (primary screen)
- Cell system: Drosophila S2R+ cells
- Knock-down reagent: long dsRNA against Drosophila genes
- Time to read-out: 5 days (4 days knock-down, then 1 day metal exposure)
- Treatment: manganese chloride added to 15 mM for 24 hours
- Measurement: 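Cellular ATP measured by luciferase light, scaled to the plate mean, averaged across replicates and z-scored over plates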
- Reading the numbers: mean ATP z-score: higher = more ATP than the plate average, more viable cells under manganese
- Rule for the call: 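Called active when the mean ATP z-score is above 1.5 or below -1.5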
- Meaning of the calls: active = strong ATP change, up or down; inactive = no strong ATP change
The deposit covers about 3,100 reagents; shown is a random part of them. 289 of all reagents (9.3%) count as active. 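Active includes both higher and lower ATP than plate average; check the z-score sign for direction.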 Names joined by + are all predicted targets of the reagent. No sequences are given here. Not stated in the record: the amount of reagent.

gene | amplicon | mean ATP z-score | Outcome
CG32206 | DRSC10095 | -1.4 | inactive
CG32206 | DRSC10096 | 0.462 | inactive
Zip42C.2 | DRSC05004 | 0.89 | inactive
Zip42C.2 | DRSC39021 | 0.00209 | inactive
CG14160 | DRSC10161 | -0.453 | inactive
Orai | DRSC22061 | 0.269 | inactive
Orai | DRSC39837 | -0.163 | inactive
Eph | DRSC17164 | -0.327 | inactive
Eph | DRSC36767 | 0.329 | inactive
Eph | DRSC36768 | 0.298 | inactive
Gr61a | DRSC08358 | 0.599 | inactive
Gr61a | DRSC39830 | -0.689 | inactive
CadN2 | DRSC03062 | -0.843 | inactive
CadN2 | DRSC03063 | -1.08 | inactive
alpha-Catr | DRSC28046 | 0.755 | inactive
ppk6 | DRSC06062 | 0.959 | inactive
ppk6 | DRSC39881 | 3.11 | active
Oct-TyrR | DRSC11883 | -1.88 | active
Oct-TyrR | DRSC39865 | -0.536 | inactive
Fie | DRSC08158 | 2.99 | active
Fie | DRSC39856 | -0.857 | inactive
Nha1 | DRSC02109 | -0.135 | inactive
Nha1 | DRSC39661 | 0.158 | inactive
ppk19 | DRSC15321 | 0.31 | inactive
ppk19 | DRSC39774 | -1.71 | active
Fur1 | DRSC13707 | -0.766 | inactive
Fur1 | DRSC16676 | -0.428 | inactive
Ir21a + asRNA:CR43609 | DRSC00528 | 0.191 | inactive
CG13810 | DRSC22838 | 0.157 | inactive
CG13810 | DRSC27859 | -0.0554 | inactive
ChT | DRSC16296 | 0.72 | inactive
AkhR | DRSC03329 | -0.768 | inactive
AkhR | DRSC28694 | 0.709 | inactive
CG17752 | DRSC15262 | 0.647 | inactive
CG17752 | DRSC26265 | 0.342 | inactive
CG42287 | DRSC39820 | -0.378 | inactive
bbc | DRSC22309 | -2.13 | active
RyR | DRSC07543 | -0.838 | inactive
RyR | DRSC39632 | -0.403 | inactive
CG13978 | DRSC14720 | -0.00328 | inactive
rho-5 | DRSC26239 | 0.0702 | inactive
rho-5 | DRSC39726 | 1.47 | inactive
Acp95EF + Spase22-23 | DRSC14102 | 1.95 | active
Nrt | DRSC11237 | -0.518 | inactive
rumpel | DRSC18436 | -0.451 | inactive
rumpel | DRSC39504 | 0.524 | inactive
babo | DRSC07581 | 0.994 | inactive
babo | DRSC36676 | -0.548 | inactive
babo | DRSC36677 | 0.432 | inactive
msk | DRSC11340 | -0.657 | inactive
msk | DRSC23929 | 7.78 | active
Ork1 | DRSC20266 | -1.22 | inactive
Ork1 | DRSC39464 | -0.968 | inactive
CG42514 + CG43373 | DRSC26599 | 2.03 | active
CG11437 | DRSC11659 | -0.174 | inactive
htl | DRSC16968 | 0.523 | inactive
htl | DRSC36668 | -0.12 | inactive
Nup44A | DRSC07248 | 1.17 | inactive
Nup44A | DRSC28141 | -0.401 | inactive
ppk13 | DRSC02382 | -0.844 | inactive
BicC | DRSC02005 | -0.564 | inactive
BicC | DRSC29676 | -0.218 | inactive
ClC-a | DRSC14947 | -0.533 | inactive
ClC-a | DRSC14948 | 0.746 | inactive
ClC-a | DRSC16142 | -0.701 | inactive
pes | DRSC03033 | -0.688 | inactive
pes | DRSC25954 | -1.88 | active
CG14195 | DRSC19550 | -0.0259 | inactive
CG14195 | DRSC39887 | -0.655 | inactive
CG5250 | DRSC15752 | -0.222 | inactive
CG5250 | DRSC39851 | -0.44 | inactive
SPR | DRSC17886 | 0.0193 | inactive
SPR | DRSC21557 | -0.365 | inactive
Tre1 | DRSC18726 | -1.19 | inactive
Tre1 | DRSC28244 | -0.00536 | inactive

Targets listed so far whose target name begins with P or p (7):
gene | amplicon | mean ATP z-score | Outcome
ppk6 | DRSC06062 | 0.959 | inactive
ppk6 | DRSC39881 | 3.11 | active
ppk19 | DRSC15321 | 0.31 | inactive
ppk19 | DRSC39774 | -1.71 | active
ppk13 | DRSC02382 | -0.844 | inactive
pes | DRSC03033 | -0.688 | inactive
pes | DRSC25954 | -1.88 | active
